PubChem BioAssay AID1259254 | NCATS, 2017
Shown is a random part of about 59,000 deposited reagents. In the full data, about 1,550 (2.6%) were called active. 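G2 share is only a proxy for re-replication; each gene was hit by three separate siRNAs, and active genes were retested.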 Unmarked entries are inactive. Reagents against one gene are numbered here. Further read-outs or replicates are left out here. Not stated in the record: the amount of reagent.

- Purpose: 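Finding genes that stop cells copying their DNA twice in one cycle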 (primary screen)
- Cell system: human HCT116 colorectal cancer cells
- Reagent: single siRNA against human genes
- Timing: 3 days
- Measured: 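Nuclei stained with Hoechst and imaged; cell-cycle phase assigned by DNA content; G2 share scaled per plate, non-targeting siRNA 0%, GMNN siRNA 100%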
- Scale: G2 robust z-score and G2 cells, % of GMNN control: higher = more G2 cells, more excess DNA replication
- Rule for the call: 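An siRNA counts as active if its G2 robust z-score lies at least 5 MADs above the screen median; here such calls match roughly 38% of GMNN control or more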

SERPINB7 #1 scored G2 robust z-score 0.946; G2 cells, % of GMNN control 9.62.
SERPINB7 #2 scored G2 robust z-score -0.411; G2 cells, % of GMNN control 0.0774.
SERPINB7 #3 scored G2 robust z-score 2.99; G2 cells, % of GMNN control 24.
Against TAP2 #1, the values are G2 robust z-score 1.43; G2 cells, % of GMNN control 13.
TAP2 #2 showed G2 robust z-score 0.193; G2 cells, % of GMNN control 4.33.
With knock-down of TAP2 #3 the results were G2 robust z-score 10.2 (active); G2 cells, % of GMNN control 74.4.
Against CABP4 #1 the deposit lists G2 robust z-score 0.285; G2 cells, % of GMNN control 4.97.
Knock-down of CABP4 #2 came out at: G2 robust z-score 0.138; G2 cells, % of GMNN control 3.94.
Against CABP4 #3 the deposit lists G2 robust z-score -0.417; G2 cells, % of GMNN control 0.0369.
With knock-down of CYP7A1 #1, the screen gave G2 robust z-score -0.204; G2 cells, % of GMNN control 1.53.
For CYP7A1 #2, the entry reads G2 robust z-score 0.751; G2 cells, % of GMNN control 8.25.
Silencing of CYP7A1 #3 came out at: G2 robust z-score 0.931; G2 cells, % of GMNN control 9.52.
Against MID2 #1, the entry reads G2 robust z-score -0.815; G2 cells, % of GMNN control -2.77.
After knock-down of MID2 #2 the results were G2 robust z-score 3.23; G2 cells, % of GMNN control 25.7.
Against MID2 #3 the deposit lists G2 robust z-score -0.92; G2 cells, % of GMNN control -3.5.
For TMPRSS5 #1 the deposit lists G2 robust z-score -1.45; G2 cells, % of GMNN control -7.21.
Knock-down of TMPRSS5 #2 came out at: G2 robust z-score 0.0756; G2 cells, % of GMNN control 3.5.
For TMPRSS5 #3, the values are G2 robust z-score 0.662; G2 cells, % of GMNN control 7.63.

Part of the list above in another layout:
Target gene | reagent no. | G2 robust z-score | G2 cells, % of GMNN control
SERPINB7 | 3 | 2.99 | 24
TAP2 | 1 | 1.43 | 13
